Laboratory results published in the supplement of paper PMC10849652.
Some of the results follow.

Sequences of proteins named here, by UniProt entry; tags and fusion partners are left off. A change or cut given only in a name is not applied to a line headed by its entry.
UniProt O00571: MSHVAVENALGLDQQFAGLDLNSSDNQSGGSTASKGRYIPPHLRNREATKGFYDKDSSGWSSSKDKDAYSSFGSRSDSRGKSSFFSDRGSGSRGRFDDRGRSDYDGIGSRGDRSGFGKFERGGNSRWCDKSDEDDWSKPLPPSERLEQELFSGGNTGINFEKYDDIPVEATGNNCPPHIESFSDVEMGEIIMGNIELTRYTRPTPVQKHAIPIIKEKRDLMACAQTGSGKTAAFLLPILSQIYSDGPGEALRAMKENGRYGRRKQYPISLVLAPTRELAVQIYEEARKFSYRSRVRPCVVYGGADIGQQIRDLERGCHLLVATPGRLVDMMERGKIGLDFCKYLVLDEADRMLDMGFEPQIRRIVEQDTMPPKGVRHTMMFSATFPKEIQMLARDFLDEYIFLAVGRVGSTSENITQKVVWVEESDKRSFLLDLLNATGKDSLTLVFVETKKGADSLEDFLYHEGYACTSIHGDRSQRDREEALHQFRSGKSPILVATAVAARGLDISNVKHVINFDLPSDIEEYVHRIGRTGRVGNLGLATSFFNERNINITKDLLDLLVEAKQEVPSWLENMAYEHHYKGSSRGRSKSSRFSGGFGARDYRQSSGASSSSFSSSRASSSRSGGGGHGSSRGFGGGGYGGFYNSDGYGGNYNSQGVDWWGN
UniProt Q16698: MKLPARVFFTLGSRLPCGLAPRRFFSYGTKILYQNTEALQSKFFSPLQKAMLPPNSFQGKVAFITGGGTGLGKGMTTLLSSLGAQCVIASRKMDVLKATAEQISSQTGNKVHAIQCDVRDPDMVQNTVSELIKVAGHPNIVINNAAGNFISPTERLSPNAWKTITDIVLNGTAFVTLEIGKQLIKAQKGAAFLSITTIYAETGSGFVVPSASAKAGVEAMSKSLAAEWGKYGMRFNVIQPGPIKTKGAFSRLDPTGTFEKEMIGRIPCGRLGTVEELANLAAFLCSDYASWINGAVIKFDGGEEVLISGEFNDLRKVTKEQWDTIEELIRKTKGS
UniProt P0CG12: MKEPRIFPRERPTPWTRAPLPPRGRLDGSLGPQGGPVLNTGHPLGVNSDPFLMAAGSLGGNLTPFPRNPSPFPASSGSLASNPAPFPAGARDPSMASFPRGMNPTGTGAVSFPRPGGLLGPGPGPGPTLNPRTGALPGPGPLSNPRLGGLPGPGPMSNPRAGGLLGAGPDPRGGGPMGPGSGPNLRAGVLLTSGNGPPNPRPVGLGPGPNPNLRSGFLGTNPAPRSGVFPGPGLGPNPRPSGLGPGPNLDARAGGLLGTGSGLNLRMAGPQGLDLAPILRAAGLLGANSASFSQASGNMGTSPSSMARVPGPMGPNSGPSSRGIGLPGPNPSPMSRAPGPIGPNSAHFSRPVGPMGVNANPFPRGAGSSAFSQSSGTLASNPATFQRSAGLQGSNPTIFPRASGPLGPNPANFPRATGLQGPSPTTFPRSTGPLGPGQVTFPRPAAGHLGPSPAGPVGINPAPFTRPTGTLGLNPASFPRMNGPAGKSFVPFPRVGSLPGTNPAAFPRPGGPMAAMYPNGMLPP
UniProt Q6UW02: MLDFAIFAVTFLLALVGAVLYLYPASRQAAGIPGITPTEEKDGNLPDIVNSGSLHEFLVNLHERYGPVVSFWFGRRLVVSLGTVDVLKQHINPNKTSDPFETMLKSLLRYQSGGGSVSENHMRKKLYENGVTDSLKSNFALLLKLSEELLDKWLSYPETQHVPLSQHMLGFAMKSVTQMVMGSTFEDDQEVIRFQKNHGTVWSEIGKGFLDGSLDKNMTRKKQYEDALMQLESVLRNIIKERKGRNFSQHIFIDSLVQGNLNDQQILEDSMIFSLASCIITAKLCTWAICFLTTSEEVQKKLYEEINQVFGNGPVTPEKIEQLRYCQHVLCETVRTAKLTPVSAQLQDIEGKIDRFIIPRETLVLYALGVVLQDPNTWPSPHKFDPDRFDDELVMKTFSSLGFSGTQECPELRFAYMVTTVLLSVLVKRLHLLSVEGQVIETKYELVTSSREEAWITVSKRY
UniProt Q9NY93: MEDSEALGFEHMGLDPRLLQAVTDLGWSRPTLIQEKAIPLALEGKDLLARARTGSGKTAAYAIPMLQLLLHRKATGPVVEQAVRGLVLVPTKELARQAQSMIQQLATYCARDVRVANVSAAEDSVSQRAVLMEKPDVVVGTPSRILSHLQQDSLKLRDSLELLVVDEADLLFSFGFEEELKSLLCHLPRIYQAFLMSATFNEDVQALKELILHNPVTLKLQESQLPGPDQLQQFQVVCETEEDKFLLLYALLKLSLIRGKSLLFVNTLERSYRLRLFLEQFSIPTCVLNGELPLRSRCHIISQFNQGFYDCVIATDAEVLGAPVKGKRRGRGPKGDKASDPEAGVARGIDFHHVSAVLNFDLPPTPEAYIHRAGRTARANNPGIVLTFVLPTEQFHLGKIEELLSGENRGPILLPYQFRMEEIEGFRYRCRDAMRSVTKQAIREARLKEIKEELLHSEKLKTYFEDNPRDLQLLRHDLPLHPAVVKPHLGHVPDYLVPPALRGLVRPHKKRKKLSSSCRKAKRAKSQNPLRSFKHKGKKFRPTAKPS
UniProt Q8IWF6: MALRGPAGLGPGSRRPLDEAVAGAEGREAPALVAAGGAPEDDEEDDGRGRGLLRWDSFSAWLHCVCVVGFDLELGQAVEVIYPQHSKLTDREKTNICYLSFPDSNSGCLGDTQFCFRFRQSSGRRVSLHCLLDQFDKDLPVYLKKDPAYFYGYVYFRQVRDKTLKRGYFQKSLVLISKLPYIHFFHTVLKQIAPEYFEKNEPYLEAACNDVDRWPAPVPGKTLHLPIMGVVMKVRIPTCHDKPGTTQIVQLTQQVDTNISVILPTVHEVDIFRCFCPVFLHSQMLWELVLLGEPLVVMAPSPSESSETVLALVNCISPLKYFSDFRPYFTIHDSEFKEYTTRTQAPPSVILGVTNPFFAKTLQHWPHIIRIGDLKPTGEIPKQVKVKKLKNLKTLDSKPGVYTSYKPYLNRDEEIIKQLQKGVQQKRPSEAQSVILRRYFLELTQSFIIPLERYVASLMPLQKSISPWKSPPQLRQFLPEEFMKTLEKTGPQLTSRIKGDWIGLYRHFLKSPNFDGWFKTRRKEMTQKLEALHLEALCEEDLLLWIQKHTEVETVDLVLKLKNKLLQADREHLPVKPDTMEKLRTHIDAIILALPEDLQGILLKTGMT
UniProt Q9Y315: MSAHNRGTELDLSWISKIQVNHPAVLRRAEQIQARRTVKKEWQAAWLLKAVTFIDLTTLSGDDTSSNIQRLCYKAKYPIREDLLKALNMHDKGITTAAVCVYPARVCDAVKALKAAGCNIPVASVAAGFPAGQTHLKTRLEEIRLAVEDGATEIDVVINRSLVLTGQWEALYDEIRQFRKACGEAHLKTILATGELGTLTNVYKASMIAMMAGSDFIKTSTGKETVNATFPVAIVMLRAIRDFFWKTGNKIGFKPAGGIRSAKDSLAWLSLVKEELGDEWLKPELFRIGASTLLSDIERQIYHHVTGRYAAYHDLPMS
UniProt Q92499: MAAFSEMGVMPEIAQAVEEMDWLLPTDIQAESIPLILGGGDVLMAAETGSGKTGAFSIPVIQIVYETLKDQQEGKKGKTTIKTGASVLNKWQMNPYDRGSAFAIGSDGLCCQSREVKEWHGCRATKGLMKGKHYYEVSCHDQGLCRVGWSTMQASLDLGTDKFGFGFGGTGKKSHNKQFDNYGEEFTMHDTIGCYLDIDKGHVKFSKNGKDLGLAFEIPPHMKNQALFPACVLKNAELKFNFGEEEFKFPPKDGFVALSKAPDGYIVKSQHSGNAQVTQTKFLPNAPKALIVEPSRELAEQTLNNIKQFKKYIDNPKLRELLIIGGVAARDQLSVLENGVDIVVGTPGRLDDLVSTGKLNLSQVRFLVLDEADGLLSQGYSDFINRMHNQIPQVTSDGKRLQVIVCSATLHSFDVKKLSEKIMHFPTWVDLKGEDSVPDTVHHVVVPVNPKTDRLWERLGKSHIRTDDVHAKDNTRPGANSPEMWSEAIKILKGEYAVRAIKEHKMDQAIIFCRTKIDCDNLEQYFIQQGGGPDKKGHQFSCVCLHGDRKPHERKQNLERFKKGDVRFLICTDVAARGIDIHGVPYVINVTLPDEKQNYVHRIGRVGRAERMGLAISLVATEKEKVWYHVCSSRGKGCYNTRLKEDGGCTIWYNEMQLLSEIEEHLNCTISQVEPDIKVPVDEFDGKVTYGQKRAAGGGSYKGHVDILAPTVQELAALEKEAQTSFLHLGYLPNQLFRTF
UniProt Q9NVP1: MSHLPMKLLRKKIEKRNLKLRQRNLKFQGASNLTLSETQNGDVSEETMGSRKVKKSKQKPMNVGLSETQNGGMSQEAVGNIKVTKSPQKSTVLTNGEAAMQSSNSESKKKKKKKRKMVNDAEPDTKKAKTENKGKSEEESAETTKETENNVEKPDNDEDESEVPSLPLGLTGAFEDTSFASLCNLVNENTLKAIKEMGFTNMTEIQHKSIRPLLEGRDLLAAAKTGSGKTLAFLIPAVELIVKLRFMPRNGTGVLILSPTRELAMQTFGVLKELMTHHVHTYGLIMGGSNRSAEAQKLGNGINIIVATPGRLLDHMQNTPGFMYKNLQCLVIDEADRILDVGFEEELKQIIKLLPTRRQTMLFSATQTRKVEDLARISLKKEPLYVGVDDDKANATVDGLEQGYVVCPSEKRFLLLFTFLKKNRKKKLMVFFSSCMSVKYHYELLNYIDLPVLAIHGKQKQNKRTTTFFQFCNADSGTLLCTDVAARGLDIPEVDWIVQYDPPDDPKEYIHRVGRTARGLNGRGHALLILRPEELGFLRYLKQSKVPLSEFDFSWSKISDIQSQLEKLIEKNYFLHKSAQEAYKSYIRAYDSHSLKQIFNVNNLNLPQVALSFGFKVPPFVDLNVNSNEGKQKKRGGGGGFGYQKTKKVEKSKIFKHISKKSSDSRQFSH
UniProt Q07973: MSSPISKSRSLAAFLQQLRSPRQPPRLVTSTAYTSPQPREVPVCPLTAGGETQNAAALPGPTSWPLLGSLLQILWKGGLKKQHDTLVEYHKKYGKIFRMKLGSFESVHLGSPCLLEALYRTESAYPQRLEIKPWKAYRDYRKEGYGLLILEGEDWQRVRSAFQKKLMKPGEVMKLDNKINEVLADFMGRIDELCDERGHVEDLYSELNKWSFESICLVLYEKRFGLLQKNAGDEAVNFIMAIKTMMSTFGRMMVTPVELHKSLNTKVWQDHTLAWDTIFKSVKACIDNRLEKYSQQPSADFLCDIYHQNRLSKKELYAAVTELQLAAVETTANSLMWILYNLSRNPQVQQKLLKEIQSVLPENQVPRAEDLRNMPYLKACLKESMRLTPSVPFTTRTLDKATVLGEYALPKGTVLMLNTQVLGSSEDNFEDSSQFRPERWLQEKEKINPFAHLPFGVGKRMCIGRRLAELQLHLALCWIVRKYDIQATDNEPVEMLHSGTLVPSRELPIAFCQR
UniProt Q96GG9: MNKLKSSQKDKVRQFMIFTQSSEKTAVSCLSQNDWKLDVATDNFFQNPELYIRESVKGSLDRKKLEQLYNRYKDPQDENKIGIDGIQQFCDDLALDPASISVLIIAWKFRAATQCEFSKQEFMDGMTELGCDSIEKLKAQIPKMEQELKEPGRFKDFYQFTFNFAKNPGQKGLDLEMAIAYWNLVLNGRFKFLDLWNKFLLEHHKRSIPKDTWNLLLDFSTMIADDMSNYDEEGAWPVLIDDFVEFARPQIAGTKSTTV
UniProt Q9NUU7: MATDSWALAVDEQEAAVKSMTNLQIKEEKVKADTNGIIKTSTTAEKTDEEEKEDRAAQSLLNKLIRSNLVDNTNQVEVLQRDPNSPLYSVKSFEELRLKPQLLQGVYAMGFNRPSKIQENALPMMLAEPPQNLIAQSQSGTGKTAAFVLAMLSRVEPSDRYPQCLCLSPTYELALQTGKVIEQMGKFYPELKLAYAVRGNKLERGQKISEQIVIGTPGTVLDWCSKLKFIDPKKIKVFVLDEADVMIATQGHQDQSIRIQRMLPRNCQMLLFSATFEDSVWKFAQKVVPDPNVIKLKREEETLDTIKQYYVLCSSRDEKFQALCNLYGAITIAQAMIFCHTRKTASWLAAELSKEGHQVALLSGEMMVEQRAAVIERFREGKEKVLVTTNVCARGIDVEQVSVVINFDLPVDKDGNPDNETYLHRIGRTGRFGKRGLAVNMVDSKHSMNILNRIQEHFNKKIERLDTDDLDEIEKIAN
UniProt Q13838, whole entry, looked up: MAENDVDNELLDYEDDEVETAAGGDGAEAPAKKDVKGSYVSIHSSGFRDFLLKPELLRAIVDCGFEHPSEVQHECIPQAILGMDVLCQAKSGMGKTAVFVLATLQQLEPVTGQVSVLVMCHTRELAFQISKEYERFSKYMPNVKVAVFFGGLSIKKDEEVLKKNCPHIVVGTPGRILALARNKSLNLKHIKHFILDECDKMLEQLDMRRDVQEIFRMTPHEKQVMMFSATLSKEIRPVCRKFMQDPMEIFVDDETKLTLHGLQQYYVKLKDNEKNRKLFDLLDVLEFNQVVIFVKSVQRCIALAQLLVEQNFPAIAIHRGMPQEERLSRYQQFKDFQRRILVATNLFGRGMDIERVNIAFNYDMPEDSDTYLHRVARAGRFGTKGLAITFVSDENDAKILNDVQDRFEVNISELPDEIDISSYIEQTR

Legend:
Assay in all cases: log2 fold change, soluble protein after heating vs DMSO (PISA); higher = thermal stabilisation; K562 lysate, 10 uM; active = over 0.2 and 3.5 SD of the protein, either way, in both replicates (recomputed)
[1] = compound: C1=CC=C(C=C1)[C@H](COC2=CC3=C(C=C2)NC(=O)N3)NC(=O)C4=CC=CN(C4=O)CC5=CC(=C(C=C5)F)F
Method in brief: (§1)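 Thermal stability, expressed as log-two fold change relative to solvent controls, is given from duplicates. Crude K562 extract in PBS pH 7.4 with 1 mM MgCl2, at 1 mg/mL protein, was treated with 10 μM compound for 30 min and heated in aliquots for 3 min across 48°C-58°C. After pooling, adjustment to 0.5% NP-40 at 4°C and centrifugation at 21,000xg for 90 min, supernatant protein was measured by TMTpro 16plex LC-MS/MS with channel sums equalised.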

[2] = compound: CC1=C(SC2=C1C(=N[C@H](C3=NN=C(N32)C)CC(=O)N)C4=CC=C(C=C4)Cl)C
Method in brief: as §1

[3] = compound: CC1=C2C(=CC=C1)N=C(N(C2=O)C3=CC=CC=C3C)CN4C=NC5=C(N=CN=C54)N
Method in brief: as §1

[4] = compound: Cc1sc2c(c1C)C(c1ccc(Cl)cc1)=N[C@@H](CC(=O)OC(C)(C)C)c1nnc(C)n1-2
Method in brief: as §1

[5] = compound: c1ccc([C@@H]2C[C@H]2NC2CCNCC2)cc1
Method in brief: as §1

Measured: log2 fold change

DAXX (UniProt Q9UER7)
inactive: [1] 0.026 | [2] 0.076 | [3] 0.037 | [4] -0.043 | [5] 0.022

DDX3X (UniProt O00571)
inactive: [1] 0.004 | [2] -0.034 | [3] 0.148 | [4] -0.021 | [5] 0.004

DDHD1 (UniProt Q8NEL9)
inactive: [1] 0.003 | [2] 0.033 | [3] 0.012 | [4] -0.02 | [5] -0.075

DENND4A isoform 2 (UniProt Q7Z401)
inactive: [1] -0.02 | [2] 0.028 | [3] -0.007 | [4] 0.039 | [5] -0.064

DBF4 (UniProt Q9UBU7)
inactive: [1] 0.073 | [2] 0.002 | [3] 0.071 | [4] 0.113 | [5] 0.078

DECR1 (UniProt Q16698)
inactive: [1] 0.008 | [2] 0.006 | [3] -0.01 | [4] 0.039 | [5] 0.004

DERPC (UniProt P0CG12)
inactive: [1] -0.008 | [2] -0.237 | [3] 0.046 | [4] -0.029 | [5] 0.064

DCAF6 isoform 3 (UniProt Q58WW2)
inactive: [1] 0.033 | [2] 0.009 | [3] 0.035 | [4] -0.033 | [5] -0.011

CYP20A1 (UniProt Q6UW02)
inactive: [1] 0.013 | [2] 0 | [3] 0.019 | [4] -0.032 | [5] 0.034

DDX19B (UniProt Q9UMR2)
inactive: [1] 0.008 | [2] 0.015 | [3] -0.016 | [4] 0.003 | [5] 0.003

DARS2 (UniProt Q6PI48)
inactive: [1] 0.036 | [2] 0.014 | [3] 0.041 | [4] 0.019 | [5] 0.023

DDB1 (UniProt Q16531)
inactive: [1] 0.014 | [2] 0.002 | [3] 0.003 | [4] 0.024 | [5] 0.01

CZIB (UniProt Q9NWV4)
inactive: [1] 0.06 | [2] -0.009 | [3] -0.035 | [4] 0.031 | [5] -0.004

DCTN6 (UniProt O00399)
inactive: [1] -0.063 | [2] 0.012 | [3] -0.023 | [4] 0.004 | [5] 0.024

DERL1 (UniProt Q9BUN8)
inactive: [1] 0.01 | [2] 0 | [3] 0.04 | [4] -0.08 | [5] -0.068

DAP3 (UniProt P51398)
inactive: [1] 0.005 | [2] 0.023 | [3] 0.003 | [4] 0.025 | [5] 0.046

D2HGDH (UniProt Q8N465)
inactive: [1] 0.004 | [2] 0.023 | [3] 0.074 | [4] -0.058 | [5] -0.035

DCP1B (UniProt Q8IZD4)
inactive: [1] 0.201 | [2] -0.122 | [3] 0.099 | [4] -0.1 | [5] -0.014

DCP1A (UniProt Q9NPI6)
inactive: [1] -0.011 | [2] -0.031 | [3] 0.025 | [4] 0.018 | [5] -0.026

DDX56 (UniProt Q9NY93)
inactive: [1] -0.028 | [2] 0.021 | [3] 0.041 | [4] -0.002 | [5] 0.048

DCUN1D4 isoform 3 (UniProt Q92564)
inactive: [1] 0.084 | [2] 0.087 | [3] 0.055 | [4] -0.139 | [5] 0.055

DENND6A (UniProt Q8IWF6)
inactive: [1] -0.101 | [2] -0.008 | [3] -0.026 | [4] 0.039 | [5] 0.023

DCTN4 (UniProt Q9UJW0)
inactive: [1] 0.015 | [2] -0.026 | [3] 0.037 | [4] -0.055 | [5] 0

DFFA (UniProt O00273)
inactive: [1] 0.022 | [2] -0.024 | [3] -0.021 | [4] 0.003 | [5] -0.044

DENND1B (UniProt Q6P3S1)
inactive: [1] 0.154 | [2] -0.205 | [3] -0.062 | [4] -0.182 | [5] 0.014

DERA (UniProt Q9Y315)
inactive: [1] 0.025 | [2] 0.012 | [3] -0.051 | [4] 0.061 | [5] 0.209

DBI isoform 5 (UniProt P07108)
inactive: [1] 0.069 | [2] -0.046 | [3] -0.035 | [4] -0.038 | [5] 0.123

DDX1 (UniProt Q92499)
inactive: [1] 0.009 | [2] 0.024 | [3] 0.007 | [4] 0.04 | [5] 0.023

DCTPP1 (UniProt Q9H773)
inactive: [1] -0.022 | [2] -0.019 | [3] -0.065 | [4] -0.013 | [5] 0.038

DCAF1 (UniProt Q9Y4B6)
inactive: [1] 0.009 | [2] -0.008 | [3] 0.007 | [4] -0.028 | [5] -0.026

DDB2 (UniProt Q92466)
inactive: [1] -0.025 | [2] -0.026 | [3] 0.034 | [4] -0.027 | [5] 0.006

DDX18 (UniProt Q9NVP1)
inactive: [1] 0.034 | [2] 0.005 | [3] -0.036 | [4] -0.005 | [5] 0.002

DAP (UniProt P51397)
inactive: [1] 0.035 | [2] -0.041 | [3] 0.011 | [4] -0.055 | [5] -0.035

CYP24A1 (UniProt Q07973)
inactive: [1] 0.02 | [2] 0.142 | [3] 0.096 | [4] -0.136 | [5] -0.262

DAAM1 (UniProt Q9Y4D1)
inactive: [1] -0.056 | [2] -0.02 | [3] -0.016 | [4] 0.344 | [5] -0.043

DDX55 (UniProt Q8NHQ9)
inactive: [1] -0.04 | [2] 0.02 | [3] 0.036 | [4] -0.001 | [5] -0.003

DENR (UniProt O43583)
inactive: [1] 0.003 | [2] -0.001 | [3] 0.006 | [4] -0.011 | [5] 0.018

DDX24 (UniProt Q9GZR7)
inactive: [1] -0.014 | [2] 0.004 | [3] -0.02 | [4] 0.031 | [5] 0.014

DDX27 (UniProt Q96GQ7)
inactive: [1] 0.006 | [2] 0.026 | [3] 0 | [4] -0.024 | [5] 0.017

DCUN1D1 (UniProt Q96GG9)
inactive: [1] -0.01 | [2] 0.021 | [3] 0.017 | [4] 0.05 | [5] -0.017

DAG1 (UniProt Q14118)
inactive: [1] 0 | [2] -0.006 | [3] 0.017 | [4] 0.022 | [5] -0.049

DDX19A (UniProt Q9NUU7)
inactive: [1] -0.014 | [2] 0.028 | [3] -0.006 | [4] 0.004 | [5] 0.016

Pulled one by one from the list above, 2 records:
DDX27 (UniProt Q96GQ7)
inactive: [1] 0.006 | [2] 0.026 | [3] 0 | [4] -0.024 | [5] 0.017

DCUN1D1 (UniProt Q96GG9)
inactive: [1] -0.01 | [2] 0.021 | [3] 0.017 | [4] 0.05 | [5] -0.017

Additional entries follow:

DDA1 (UniProt Q9BW61)
inactive: [1] 0.073 | [2] 0.024 | [3] -0.016 | [4] -0.003 | [5] 0.029

DCXR (UniProt Q7Z4W1)
inactive: [1] -0.041 | [2] 0.009 | [3] -0.012 | [4] 0.007 | [5] -0.041

DCK (UniProt P27707)
inactive: [1] 0.033 | [2] -0.006 | [3] -0.008 | [4] -0.015 | [5] 0.046

DERL2 (UniProt Q9GZP9)
inactive: [1] -0.115 | [2] 0.009 | [3] -0.065 | [4] -0.099 | [5] 0.158

DDRGK1 (UniProt Q96HY6)
inactive: [1] 0.049 | [2] -0.007 | [3] 0.009 | [4] 0.027 | [5] 0.031

DDX4 (UniProt Q9NQI0)
inactive: [1] -0.047 | [2] 0.007 | [3] -0.004 | [4] 0.049 | [5] -0.265

DDX39B isoform 2 (UniProt Q13838)
inactive: [1] -0.012 | [2] 0.026 | [3] -0.016 | [4] 0.024 | [5] 0.001

DEPDC5 (UniProt O75140)
inactive: [1] 0.006 | [2] -0.085 | [3] 0.05 | [5] 0

DDX5 (UniProt P17844)
inactive: [1] 0.037 | [2] -0.024 | [3] 0.013 | [4] 0.063 | [5] 0.032

DDX50 (UniProt Q9BQ39)
inactive: [1] 0.038 | [2] 0.019 | [3] -0.037 | [4] -0.016 | [5] 0.063

DENND10 (UniProt Q8TCE6)
inactive: [1] 0.022 | [2] 0.113 | [3] 0.049 | [4] -0.023 | [5] -0.002
